Results as given in publication PMC10654515.

Amino acid sequences for entries named in this document (tags omitted).
UniProt Q7KZF4: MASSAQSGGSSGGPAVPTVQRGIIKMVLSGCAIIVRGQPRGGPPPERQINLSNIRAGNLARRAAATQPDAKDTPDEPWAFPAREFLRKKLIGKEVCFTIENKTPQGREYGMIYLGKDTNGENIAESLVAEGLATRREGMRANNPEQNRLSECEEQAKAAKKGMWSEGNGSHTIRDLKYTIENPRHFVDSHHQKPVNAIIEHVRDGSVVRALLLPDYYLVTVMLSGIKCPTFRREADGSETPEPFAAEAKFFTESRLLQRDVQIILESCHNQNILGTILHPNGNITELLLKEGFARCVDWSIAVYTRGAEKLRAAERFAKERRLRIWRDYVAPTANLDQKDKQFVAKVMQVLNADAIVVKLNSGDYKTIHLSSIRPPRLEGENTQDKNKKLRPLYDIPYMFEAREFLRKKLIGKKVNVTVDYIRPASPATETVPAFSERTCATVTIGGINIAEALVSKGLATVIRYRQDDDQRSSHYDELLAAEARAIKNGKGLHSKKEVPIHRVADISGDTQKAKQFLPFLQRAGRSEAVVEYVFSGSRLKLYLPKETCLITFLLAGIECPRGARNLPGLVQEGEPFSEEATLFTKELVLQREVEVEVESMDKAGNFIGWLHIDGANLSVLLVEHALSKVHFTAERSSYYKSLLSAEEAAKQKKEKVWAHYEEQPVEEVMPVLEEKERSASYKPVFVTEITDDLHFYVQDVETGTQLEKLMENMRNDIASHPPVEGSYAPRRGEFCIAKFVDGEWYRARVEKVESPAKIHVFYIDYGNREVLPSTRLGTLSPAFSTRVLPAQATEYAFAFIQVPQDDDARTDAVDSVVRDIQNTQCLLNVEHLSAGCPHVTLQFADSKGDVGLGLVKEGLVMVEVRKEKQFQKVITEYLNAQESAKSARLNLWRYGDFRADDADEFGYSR

Tests used:
[1] = molecular target: T1, N-terminal VA (3xFLAG-2xTEV-6xHIS-StrepIII-Beacon) tagged ERG (human) (UniProt P11308); assay: affinity purification with mass spectrometry; lysates of VCaP cells stably expressing VA-tagged ERG or GFP; anti-Flag M2 antibody on Protein G Dynabeads, 2 h at 4 °C; TBS (30 mM Tris-HCl pH 7.5, 150 mM NaCl) with 0.5% Nonidet P40; on-bead trypsin digest, Orbitrap Velos
T1 sequence: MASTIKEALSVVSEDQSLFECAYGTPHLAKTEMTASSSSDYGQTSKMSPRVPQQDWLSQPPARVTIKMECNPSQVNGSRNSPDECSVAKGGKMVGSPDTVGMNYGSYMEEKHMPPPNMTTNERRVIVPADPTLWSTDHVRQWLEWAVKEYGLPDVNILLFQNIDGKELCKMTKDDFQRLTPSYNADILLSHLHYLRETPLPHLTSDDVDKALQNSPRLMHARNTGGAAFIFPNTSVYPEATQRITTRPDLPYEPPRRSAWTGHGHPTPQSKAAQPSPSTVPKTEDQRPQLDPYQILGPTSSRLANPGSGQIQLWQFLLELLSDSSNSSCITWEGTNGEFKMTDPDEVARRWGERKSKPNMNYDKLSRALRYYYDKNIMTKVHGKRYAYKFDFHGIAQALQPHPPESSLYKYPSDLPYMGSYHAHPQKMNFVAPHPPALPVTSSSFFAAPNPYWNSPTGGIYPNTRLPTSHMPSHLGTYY

[2] = molecular target: T2, C-terminal VA (3xFLAG-2xTEV-6xHIS-StrepIII-Beacon) tagged ERG (human) (UniProt P11308); assay: as above
T2 sequence: T1 sequence

With “SND1 (endogenous, VCaP cells) (from UniProt Q7KZF4 1-910)” the binding [1] was “binds” and the binding [2] was “binds”.

No constants are given. Whether binding was seen depends on the method and setting. In cells and extracts the contact can be indirect. A yes stands for co-enrichment or nearness to the bait. Other partners may have been found. Tags and fused reporters may be left off the sequences shown.
